Test results from PubChem BioAssay AID504834 (National Center for Advancing Translational Sciences (NCATS), 2011).
Where “and” joins values, the source holds several entries; their conditions need not be identical. Equal values may be shown once. Among all 320,000 compounds or so, about 22,000 (6.9%) were called active. Inconclusive means that the source gave no clear call. Such entries were picked first, then a sample of the others. Calls come from the whole dose curve; as a rule, active = well fitted inhibition curve with a large enough effect; inconclusive = small, poorly fitted or top-dose-only effect, or another doubt; inactive = no such curve, though single readings can be large or run the other way. Potencies beside an inconclusive call are fits to weak or partial responses and may not hold up.

test: Primary qHTS for delayed death inhibitors of the malarial parasite plastid, 96 hour incubation; settings: P. falciparum luciferase reporter growth; series mostly up to 28.7 µM
How it was run: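 Two-generation exposure (96 h) targets delayed-death phenotype. Reporter parasites carrying integrated firefly luciferase, in red cells at 2% hematocrit and 0.05% parasitemia final, kept at 37 C, 5% CO2; luminescence loss indicates inhibition.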
% is set by controls: 0 for no effect and ±100 for the full control effect; potency is the fitted concentration of half-maximal effect.

Compound | Potency | activity change, negative = inhibition
C/C(=N\N=C1/NC(=O)C(C)S1)c1ccco1 (centres undefined) | inconclusive: 3.29 µM [inhibitor, full curve] | 
COc1cccc(Sc2nc(-c3ccccc3)ncc2S(C)(=O)=O)c1 | active: 9.28 µM | 
O=S(=O)(Nc1nccs1)c1ccc(Br)cc1 | inactive | 
O=C(Cn1nc(Cc2cccnc2)c2ccccc2c1=O)NCC1COc2ccccc2O1 (centres undefined) | inconclusive: 18.5 µM [inhibitor, single point] | 
CCOC(=O)/C=C/C(=O)OCc1csc(CC(=O)Nc2ccccc2C)n1 | inconclusive: 20.8 µM [inhibitor, partial curve, poor fit] | 
CC(=O)c1cccc(NC(=O)CN(C)S(=O)(=O)c2ccc3c(c2)CC(C)N3C(C)=O)c1 (centres undefined) | inactive | 
Nc1ncc(CCN2CCOCC2)c(-c2ccc(F)cc2)n1 | inconclusive: 14.7 µM [inhibitor, single point] | 
COc1ccc(Nc2nc(NN)nc(C)c2[N+](=O)[O-])cc1 | inconclusive: 18.5 µM [inhibitor, single point] | 
Cc1nn(Cc2ccccc2)c(Cl)c1C(=O)NCCc1ccc(Cl)cc1 | inconclusive: 4.15 µM [inhibitor, partial curve, poor fit] | 
COC(=O)C1=C(c2ccc(OC)c(OC)c2)C[C@@H]2CC[C@H]1N2C(=O)NCCc1ccccc1 | inactive | 
CC1(C(=O)N(CC(=O)NC2CCCC2)Cc2ccccc2)CC(=O)N=C2C=CC=CN21 (centres undefined) | inconclusive: 11.7 µM [inhibitor, partial curve, poor fit] | 
Cc1nn(CC(O)Cn2cnc3c2c(=O)n(C)c(=O)n3C)c(C)c1Br (centres undefined) | inconclusive: 16.5 µM [inhibitor, single point] | 
O=C(NCc1cccnc1)c1c[nH]c2cc3c(cc2c1=O)OCCO3 | inconclusive: 0.657 µM [inhibitor, full curve, poor fit] | 
Nc1nnc(SCCOc2ccccc2)s1 | inconclusive: 1.17 µM [inhibitor, partial curve, poor fit] | 
O=C(Nc1ccc2c(c1)OCCO2)c1ccc(Cl)cc1Cl | inconclusive: 10.4 µM [inhibitor, single point] | 
CCOc1ccc2nc(NC(=O)C3CCN(S(=O)(=O)c4cnc[nH]4)CC3)sc2c1 | inconclusive: 10.4 µM [inhibitor, single point] | 
CCOC(=O)CSc1nc2ccccc2n1CC(=O)N1CCN(c2ccccc2)CC1 | inconclusive: 20.8 µM [inhibitor, partial curve, poor fit] | 
CCCC1CCC(C(=O)n2nc(N)c3cc4ccc(OC)cc4nc32)CC1 (centres undefined) | inconclusive: 18.5 µM [inhibitor, single point] | 
CCc1cc2c(C)ccc(C)c2nc1SCC(=O)Nc1cc(C)on1 | inconclusive: 13.1 µM [inhibitor, single point] | 
Cc1cc(C)c2sc(N(CCCN(C)C)C(=O)c3ccc(S(=O)(=O)N4CCCc5ccccc54)cc3)nc2c1 | inconclusive: 11.7 µM [inhibitor, partial curve] | 
CCN1C(=O)[C@@H]2Cc3c([nH]c4ccccc34)C(c3ccc(OC)cc3)N2C1=S (some centres undefined) | inconclusive: 10.4 µM [inhibitor, partial curve, poor fit] | 
O=C(CNc1ccccc1N1CCCC1=O)Nc1cc(Cl)ccc1-n1cncn1 | inactive | 
CCOc1ccc(-c2cc(C(=O)N/N=C(\C)c3cccnc3)c3ccccc3n2)cc1 | inactive | 

Compound | Potency | activity change, negative = inhibition
O=c1cc(CSc2nnnn2-c2ccccc2)nc2sccn12 | inconclusive: 11.7 µM [inhibitor, partial curve, poor fit] | 
CC(C)(C)c1ccc(C(=O)NNC(=S)NC(=O)c2cccnc2)cc1 | inconclusive: 11.7 µM [inhibitor, partial curve, poor fit] | 
O=C(CC1C(=O)NCCN1Cc1cccc(Oc2ccccc2)c1)NCCc1ccncc1 (centres undefined) | inconclusive: 0.0074 µM [inhibitor, partial curve, poor fit] | 
COCCn1c(SCC(=O)Nc2nc(C)c(Cl)cc2Cl)nc2ccccc21 | inactive | 
O=C(c1cccc(S(=O)(=O)N2CCc3ccccc3C2)c1)N1CCN(c2ccc(O)cc2)CC1 | inconclusive: 13.1 µM [inhibitor, partial curve, poor fit] | 
Cc1cc(C)nc(Nc2nc3ccccc3[nH]2)n1 | inactive | 
COc1ccc(C(=O)NC(=S)Nc2cccc(NC(=O)c3ccco3)c2)cc1[N+](=O)[O-] | inactive | 
CC(C)Cn1c(C(C)C)nc([N+](=O)[O-])c1S(=O)(=O)c1ccc(F)cc1 | inconclusive: 13.1 µM [inhibitor, single point] | 
CN(c1ccc([N+](=O)[O-])cc1/C=N/NC(=O)COc1ccccc1)C1CCCCC1 | inconclusive: 0.262 µM [inhibitor, full curve, poor fit] | 
Cc1ccc(CN(Cc2ccccc2)C(=S)Nc2ccccc2C)o1 | inconclusive: 2.08 µM [inhibitor, partial curve, poor fit] | 
O=C(NC1c2ccccc2-c2ccccc21)c1ccco1 | inconclusive: 0.0026 µM [inhibitor, full curve, poor fit] | 
CCc1ccc(NC(=O)CSc2nc3ccccc3nc2N2CCCC2)cc1 | active: 2.62 µM | 
CC1CCc2cc(F)cc3c(=O)c(C(=O)O)cn1c23 (centres undefined) | inconclusive: 13.5 µM [inhibitor, partial curve] and inconclusive: 18.5 µM [inhibitor, single point] | 
O=C(CN1CCN(CC(=O)Nc2ccccc2Cc2ccccc2)CC1)Nc1ccccc1Cl | active: 13.1 µM | 
Cc1cccc(C(=O)NCCCNC(=O)c2ccco2)c1 | inconclusive: 7.38 µM [inhibitor, partial curve, poor fit] | 
CCOC(=O)c1oc2ccc(S(=O)(=O)N3CCOCC3)cc2c1C | active: 1.85 µM | 
O=C(NCC1CCCCN1)c1cc(OCC(F)(F)F)ccc1OCC(F)(F)F (centres undefined) | inconclusive: 2.39 µM [inhibitor, full curve] | 
O=c1cc(CO)[nH]cc1OCc1ccccc1 | inactive | 
CNc1ccccc1C(=O)OC(C)C(=O)Nc1ccc(S(=O)(=O)N2CCCC2)cc1 (centres undefined) | inconclusive: 11.7 µM [inhibitor, single point] | 
O=c1c2c3c(sc2n(CCN2CCOCC2)c(=O)n1Cc1ccco1)CCCCC3 | active: 2.62 µM | 
CC(=O)c1cc(-c2ccccc2)n(CCC(=O)NC2CCCCC2)c1C | active: 10.4 µM | 
O=C(OCC(=O)N1CCN(C(=O)c2ccco2)CC1)C1=COCCO1 |  | inactive: 2.06% [at 5.75 µM]
CCc1ccc(NC(=O)C2CCN(S(=O)(=O)c3c(C)noc3C)CC2)cc1 | active: 5.86 µM | 

16 structures out of the list, arranged by SMILES length, descending.
Compound | Potency | activity change, negative = inhibition
COc1ccc(C(=O)NC(=S)Nc2cccc(NC(=O)c3ccco3)c2)cc1[N+](=O)[O-] | inactive | 
CN(c1ccc([N+](=O)[O-])cc1/C=N/NC(=O)COc1ccccc1)C1CCCCC1 | inconclusive: 0.262 µM [inhibitor, full curve, poor fit] | 
CC(C)Cn1c(C(C)C)nc([N+](=O)[O-])c1S(=O)(=O)c1ccc(F)cc1 | inconclusive: 13.1 µM [inhibitor, single point] | 
CNc1ccccc1C(=O)OC(C)C(=O)Nc1ccc(S(=O)(=O)N2CCCC2)cc1 (centres undefined) | inconclusive: 11.7 µM [inhibitor, single point] | 
O=C(CN1CCN(CC(=O)Nc2ccccc2Cc2ccccc2)CC1)Nc1ccccc1Cl | active: 13.1 µM | 
O=C(CC1C(=O)NCCN1Cc1cccc(Oc2ccccc2)c1)NCCc1ccncc1 (centres undefined) | inconclusive: 0.0074 µM [inhibitor, partial curve, poor fit] | 
O=c1c2c3c(sc2n(CCN2CCOCC2)c(=O)n1Cc1ccco1)CCCCC3 | active: 2.62 µM | 
O=C(NCC1CCCCN1)c1cc(OCC(F)(F)F)ccc1OCC(F)(F)F (centres undefined) | inconclusive: 2.39 µM [inhibitor, full curve] | 
COCCn1c(SCC(=O)Nc2nc(C)c(Cl)cc2Cl)nc2ccccc21 | inactive | 
O=C(OCC(=O)N1CCN(C(=O)c2ccco2)CC1)C1=COCCO1 |  | inactive: 2.06% [at 5.75 µM]
CCc1ccc(NC(=O)CSc2nc3ccccc3nc2N2CCCC2)cc1 | active: 2.62 µM | 
Cc1ccc(CN(Cc2ccccc2)C(=S)Nc2ccccc2C)o1 | inconclusive: 2.08 µM [inhibitor, partial curve, poor fit] | 
CC1CCc2cc(F)cc3c(=O)c(C(=O)O)cn1c23 (centres undefined) | inconclusive: 13.5 µM [inhibitor, partial curve] and inconclusive: 18.5 µM [inhibitor, single point] | 
O=C(NC1c2ccccc2-c2ccccc21)c1ccco1 | inconclusive: 0.0026 µM [inhibitor, full curve, poor fit] | 
Cc1cc(C)nc(Nc2nc3ccccc3[nH]2)n1 | inactive | 
O=c1cc(CO)[nH]cc1OCc1ccccc1 | inactive | 

Following part

Compound | Potency | activity change, negative = inhibition
CN(CC(=O)NCCc1ccc(S(N)(=O)=O)cc1)CC(=O)Nc1ccccc1Cl | inconclusive: 0.262 µM [inhibitor, full curve, poor fit] | 
O=C(NCc1cccc(C(F)(F)F)c1)c1cc(Cl)ccc1Cl | inconclusive: 18.5 µM [inhibitor, single point] | 
Cc1ccc(C)c(NC(=O)CCc2nnc3ccc(N4CCCC4)nn23)c1 | inconclusive: 13.1 µM [inhibitor, single point] | 
O=C(Cc1cccs1)N(CC1CCCO1)C1(C(=O)NC2CCCC2)CCCCC1 (centres undefined) | inconclusive: 14.7 µM [inhibitor, partial curve, poor fit] | 
CCOC(=O)c1cnc(SC)nc1Sc1cc(Cl)ccc1Cl | active: 10.4 µM | 
CSc1ncccc1C(=O)OCC(=O)NC1CCCC1 | inconclusive: 18.5 µM [inhibitor, single point] | 
C/C(CC1CC(C)OC1=O)=N\NC(N)=S (centres undefined) | inactive | 
COc1cc(NC(=O)c2ccco2)c(C(=O)OCC(=O)c2c[nH]c3ccccc23)cc1OC | active: 2.33 µM | 
Cc1ccc(S(=O)(=O)NCCNC(=O)CN2CCOCC2)cc1 | inactive | 
CC12CN3CC(C)(CN(C1)C3c1cc3ccccc3[nH]1)C2=O (centres undefined) | active: 1.04 µM | 
CCOC(=O)C1C(=O)C=C(c2cccs2)CC1c1ccccc1C (centres undefined) | inconclusive: 10.4 µM [inhibitor, single point] | 
Cc1cc(N2CCCCC2)ccc1[N+](=O)[O-] | inactive | 
CCOc1cccc(-c2nnc3sc(-c4cc(OC)c(OC)cc4OC)nn23)c1 | inactive | 
Cc1ccc(Cl)cc1NC(=O)C(NS(=O)(=O)c1cccs1)c1ccccc1 (centres undefined) | inconclusive: 18.5 µM [inhibitor, single point] | 
CCCOc1ccc(/C=c2\sc3nc(-c4ccco4)nn3c2=O)cc1OCC | inconclusive: 10.4 µM [inhibitor, single point] | 
CCOC(=O)c1cc(CC)sc1NC(=O)Cc1ccccc1 | inconclusive: 18.5 µM [inhibitor, single point] | 
O=C(Nc1ccc(F)c(Cl)c1)Nc1csc2ccccc12 | inconclusive: 2.62 µM [inhibitor, full curve, poor fit] | 
CCN(C(=O)Cn1c(=O)n2nc(CCn3nc(C)cc3C)nc2c2ccccc21)c1cccc(C)c1 | active: 2.62 µM | 
CC(C)(C)Nc1nc(NC(C)(C)C)nc(-n2ccnc2)n1 | inconclusive: 0.0828 µM [inhibitor, full curve, poor fit] | 
COc1ccc(-c2nnn(CC(=O)NCc3ccc4c(c3)OCO4)n2)cc1OC | inactive | 
CC(=O)N1c2ccc(S(=O)(=O)NCC3CCC(C(=O)NCc4ccccc4)CC3)cc2CC1C (centres undefined) | inactive | 
COC(=O)N1[C@H](C)C=C[C@]1(Cc1ccccc1)C(=O)O | inactive | 
O=C(COc1ccc(Cl)cc1Cl)NN=C1CCCCC1 | inconclusive: 10.4 µM [inhibitor, partial curve, poor fit] | 
